This is an account of results in the supplement of paper PMC4604168 (melanoma cell lines).

The other results are listed elsewhere or left out. Many values rest on one well or one pass, so single values are uncertain.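 Imaging used 1,536-well plates; nuclei positive for cleaved PARP by antibody were divided by total DNA-stained nuclei to yield the apoptosis fraction. Doses for screening kept most cells viable, and cell lines differ markedly in resting and induced cleaved-PARP levels.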

This assay has as its system CBRC016 (line from a melanoma biopsy). Put plainly: cleaved PARP positive nuclei fraction relative to DMSO control; melanoma cells; higher = more apoptosis. To be noted: library dose: low library concentration; 72 h.
Consider `CS(=O)(=O)c1ccc(C(=O)Nc2ccc(Cl)c(-c3ccccn3)c2)c(Cl)c1` [vismodegib] + OCc1c[nH]c2ccccc12 [Indole-3-carbinol] (first compound 1 µM, partner dose 0.8 µM), for which the “cleaved PARP positive nuclei fraction” value was 109%.

Take `COc1ccc(C2=N[C@@H](c3ccc(Cl)cc3)[C@@H](c3ccc(Cl)cc3)N2C(=O)N2CCNC(=O)C2)c(OC(C)C)c1` [Nutlin-3] + NC1(c2ccc(-c3nc4ccn5c(=O)[nH]nc5c4cc3-c3ccccc3)cc2)CCC1 [MK2206] (first compound 0.1 µM, partner dose 0.4 µM): the “cleaved PARP positive nuclei fraction” value stood at 112%. To `COc1ccc(C2=N[C@@H](c3ccc(Cl)cc3)[C@@H](c3ccc(Cl)cc3)N2C(=O)N2CCNC(=O)C2)c(OC(C)C)c1` [Nutlin-3] + Clc1ccc(Nc2nnc(Cc3ccncc3)c3ccccc23)cc1 [vatalanib] (first compound 0.1 µM, partner dose 2 µM) belongs 117%. To `Cn1sc(=O)n(Cc2ccccc2)c1=O` + CN(c1ncccc1CNc1nc(Nc2ccc3c(c2)CC(=O)N3)ncc1C(F)(F)F)S(C)(=O)=O [PF562271] (first compound 0.4 µM, partner dose 0.08 µM) belongs 171%. To `Cn1cnc2c(F)c(Nc3ccc(Br)cc3Cl)c(C(=O)NOCCO)cc21` [selumetinib] + CNC(=O)c1cc(Oc2ccc(NC(=O)Nc3ccc(Cl)c(C(F)(F)F)c3)cc2)ccn1 [sorafenib] (first compound 0.015 µM, partner dose 0.4 µM) belongs 146%.
